From article PMC5785523
No constants are given. Whether binding was seen depends on the method and setting. In cells and extracts the contact can be indirect. Some results given as binding are weak or reduced against the parent protein; the word gives no strength. Where a sequence is shown, tags or fusion partners need not be part of it.

T1: TAP-tagged Mrc1 (yeast (endogenous in W303-1a)) (UniProt P25588)
T1 sequence: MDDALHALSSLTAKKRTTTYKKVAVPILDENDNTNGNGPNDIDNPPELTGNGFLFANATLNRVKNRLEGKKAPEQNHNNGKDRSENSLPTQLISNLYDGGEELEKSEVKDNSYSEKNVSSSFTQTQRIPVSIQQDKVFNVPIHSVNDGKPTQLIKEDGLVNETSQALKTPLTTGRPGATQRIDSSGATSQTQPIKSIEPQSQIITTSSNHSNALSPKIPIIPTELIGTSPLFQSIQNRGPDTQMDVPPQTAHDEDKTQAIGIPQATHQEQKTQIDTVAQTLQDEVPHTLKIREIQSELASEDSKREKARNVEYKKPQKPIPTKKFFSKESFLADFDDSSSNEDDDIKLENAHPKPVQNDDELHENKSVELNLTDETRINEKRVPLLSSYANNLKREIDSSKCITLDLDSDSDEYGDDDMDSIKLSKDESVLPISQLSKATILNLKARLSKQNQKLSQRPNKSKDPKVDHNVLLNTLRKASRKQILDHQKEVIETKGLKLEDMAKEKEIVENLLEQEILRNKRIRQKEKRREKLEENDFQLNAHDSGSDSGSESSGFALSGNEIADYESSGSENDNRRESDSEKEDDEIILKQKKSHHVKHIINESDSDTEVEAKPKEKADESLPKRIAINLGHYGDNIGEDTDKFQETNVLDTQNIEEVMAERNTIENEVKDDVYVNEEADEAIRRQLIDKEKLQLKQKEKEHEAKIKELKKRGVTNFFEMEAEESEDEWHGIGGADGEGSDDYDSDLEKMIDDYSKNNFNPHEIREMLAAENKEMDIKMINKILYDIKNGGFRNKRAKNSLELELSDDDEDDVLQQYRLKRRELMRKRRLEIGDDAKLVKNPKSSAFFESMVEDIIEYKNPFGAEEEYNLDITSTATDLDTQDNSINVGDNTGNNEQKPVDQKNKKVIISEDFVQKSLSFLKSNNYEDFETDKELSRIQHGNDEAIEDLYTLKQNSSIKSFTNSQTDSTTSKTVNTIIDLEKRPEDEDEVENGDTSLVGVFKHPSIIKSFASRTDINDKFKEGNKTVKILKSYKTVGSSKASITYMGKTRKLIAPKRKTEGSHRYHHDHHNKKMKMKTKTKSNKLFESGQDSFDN

T2: HA-tagged Snf1 (yeast (endogenous in W303-1a)) (UniProt P06782)
T2 sequence: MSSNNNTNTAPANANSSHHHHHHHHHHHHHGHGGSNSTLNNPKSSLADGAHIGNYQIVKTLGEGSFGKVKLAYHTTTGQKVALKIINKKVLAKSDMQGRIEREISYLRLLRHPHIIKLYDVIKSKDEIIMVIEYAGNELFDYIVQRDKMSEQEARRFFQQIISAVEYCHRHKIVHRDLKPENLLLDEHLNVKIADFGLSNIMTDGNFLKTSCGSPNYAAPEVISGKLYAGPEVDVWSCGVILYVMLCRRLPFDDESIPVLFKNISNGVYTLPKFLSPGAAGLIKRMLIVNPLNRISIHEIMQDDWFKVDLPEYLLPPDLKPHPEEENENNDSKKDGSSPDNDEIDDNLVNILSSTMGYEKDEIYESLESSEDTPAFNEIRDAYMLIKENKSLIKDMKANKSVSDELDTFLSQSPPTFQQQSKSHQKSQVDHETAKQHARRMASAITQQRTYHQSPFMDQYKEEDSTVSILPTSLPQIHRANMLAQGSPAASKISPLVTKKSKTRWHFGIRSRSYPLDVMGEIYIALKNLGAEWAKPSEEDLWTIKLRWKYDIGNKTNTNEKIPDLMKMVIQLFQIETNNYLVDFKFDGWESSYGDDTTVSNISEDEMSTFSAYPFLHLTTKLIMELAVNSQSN

B1: Myc-tagged Mpk1 (enzyme, UniProt Q00772 1-484)
chain: MADKIERHTFKVFNQDFSVDKRFQLIKEIGHGAYGIVCSARFAEAAEDTTVAIKKVTNVFSKTLLCKRSLRELKLLRHFRGHKNITCLYDMDIVFYPDGSINGLYLYEELMECDMHQIIKSGQPLTDAHYQSFTYQILCGLKYIHSADVLHRDLKPGNLLVNADCQLKICDFGLARGYSENPVENSQFLTEYVATRWYRAPEIMLSYQGYTKAIDVWSAGCILAEFLGGKPIFKGKDYVNQLNQILQVLGTPPDETLRRIGSKNVQDYIHQLGFIPKVPFVNLYPNANSQALDLLEQMLAFDPQKRITVDEALEHPYLSIWHDPADEPVCSEKFEFSFESVNDMEDLKQMVIQEVQDFRLFVRQPLLEEQRQLQLQQQQQQQQQQQQQQQQPSDVDNGNAAASEENYPKQMATSNSVAPQQESFGIHSQNLPRHDADFPPRPQESMMEMRPATGNTADIPPQNDNGTLLDLEKELEFGLDRKYF
B2: HA-tagged Psk1 (enzyme, UniProt P31374 1-1356)
chain: MPYIGASNLSEHSFVNLKEKHAITHKGTSSSVASLQTPPSPDQENHIDNELENYDTSLSDVSTPNKKEGDEFEQSLRDTFASFRKTKPPPPLDFEQPRLPSTASSSVDSTVSSPLTDEDIKELEFLPNESTHSYSYNPLSPNSLAVRLRILKRSLEIIIQNPSMLLEPTPDDLPPLKEFAGRRSSLPRTSASANHLMNRNKSQIWNTTSATLNAFVNNTSSSSAASSALSNKKPGTPVFPNLDPTHSQTFHRANSLAYLPSILPEQDPLLKHNNSLFRGDYGNNISPERPSFRQPFKDQTSNLRNSSLLNERAYQEDETFLPHHGPSMDLLNEQRANLKSLLNLLNETLEKNTSERASDLHMISLFNLNKLMLGDPKKNNSERDKRTEKLKKILLDSLAEPFFEHYNFIGDNPIADTDELKEEIDEFTGSGDTTAITDIRPQQDYGRILRTFTSTKNSAPQAIFTCSQEDPWQFRAANDLACLVFGISQNAIRALTLMDLIHTDSRNFVLHKLLSTEGQEMVFTGEIIGIVQPETLSSSKVVWASFWAKRKNGLLVCVFEKVPCDYVDVLLNLDDFGAENIVDKCELLSDGPTLSSSSTLSLPKMASSPTGSKLEYSLERKILEKSYTKPTSTENRNGDENQLDGDSHSEPSLSSSPVRSKKSVKFANDIKDVKSISQSLAKLMDDVRNGVVFDPDDDLLPMPIKVCNHINETRYFTLNHLSYNIPCAVSSTVLEDELKLKIHSLPYQAGLFIVDSHTLDIVSSNKSILKNMFGYHFAELVGKSITEIIPSFPKFLQFINDKYPALDITLHKNKGLVLTEHFFRKIQAEIMGDRKSFYTSVGIDGLHRDGCEIKIDFQLRVMNSKVILLWVTHSRDVVFEEYNTNPSQLKMLKESELSLMSSASSSASSSKKSSSRISTGTLKDMSNLSTYEDLAHRTNKLKYEIGDDSRAHSQSTLSEQEQVPLENDKDSGEMMLADPEMKHKLELARIYSRDKSQFVKEGNFKVDENLIISKISLSPSTESLADSKSSGKGLSPLEEEKLIDENATENGLAGSPKDEDGIIMTNKRGNQPVSTFLRTPEKNIGAQKHVKKFSDFVSLQKMGEGAYGKVNLCIHKKNRYIVVIKMIFKERILVDTWVRDRKLGTIPSEIQIMATLNKKPHENILRLLDFFEDDDYYYIETPVHGETGCIDLFDLIEFKTNMTEFEAKLIFKQVVAGIKHLHDQGIVHRDIKDENVIVDSKGFVKIIDFGSAAYVKSGPFDVFVGTIDYAAPEVLGGNPYEGQPQDIWAIGILLYTVVFKENPFYNIDEILEGDLKFNNAEEVSEDCIELIKSILNRCVPKRPTIDDINNDKWLVI
B3: TAP-tagged Mrc1 (protein, UniProt P25588 1-1096)
chain: T1 sequence

Tests used:
[1] = biological target: T1, TAP-tagged Mrc1 (yeast (endogenous in W303-1a)); test: co-IP; Mrc1–TAP precipitated from yeast whole-cell extract with rabbit IgG–agarose overnight at 4 °C; lysis buffer 45 mM Hepes-KOH pH 7.2, 150 mM NaCl, 1 mM EDTA, 10% glycerol, 1% Triton X-100; beads washed 10 times; partner detected by western blotting
[2] = biological target: T2, HA-tagged Snf1 (yeast (endogenous in W303-1a)); test: co-IP; HA–Snf1 precipitated from yeast whole-cell extract with anti-HA antibody (12CA5) and protein G matrix; lysis buffer 45 mM Hepes-KOH pH 7.2, 150 mM NaCl, 1 mM EDTA, 10% glycerol, 1% Triton X-100; beads washed 10 times; Mrc1–TAP detected by western blotting with anti-PAP

Binder | binding [1] | binding [2]
B1 | binds | –
B2 | binds | –
B3 | – | binds
